Assays:
[1] = tested on: U2OS cells expressing Per2-luciferase; assay: Circadian rhythm of U2OS cells expressing Per2-luciferase; type: cell-based, human
Procedure: (a) IKBKB inhibitors. The concentration of all the inhibitors was 10 μM, n=5. (b) IKBKE inhibitors.
The above experiments were conducted with the drug added to the culture media from the beginning.

[2] = tested on: mice in a 6 h advanced jet lag paradigm; assay: Mouse jet lag assay (LD cycle advanced by 6 h); type: in vivo; details: single dose 0.1 mg/kg into lateral ventricle at CT20:00, p<0.01 vs control
Procedure: After adult mice were placed in a light/dark (LD) cycle of 12L:12D (light on at CT 3:00, light off at CT15:00) for 11 days, dinaciclib (0.1 mg/kg body weight) was applied at CT20:00. At CT21:00, the LD cycle was advanced by 6 h (light on at CT21:00, light off at CT9:00), and the mice were kept in the new LD for 14 days.
The tip of the cannula was inserted stereotaxically to the lateral ventricular of mice. After surgery, mice were returned to the home cage under a LD cycle (light on at CT3:00, light off at CT15:00) for 7 days before video recording of mouse activities began. After another four days, at CT 20:00, Dinaciclib dissolved in 20% hydroxypropyl-β-cyclodextran (Parry et al., 2010) (at the concentration of 5 mg/ml, at the speed of 0.5[…]1/min) or vehicle alone was pumped into the brain to achieve the total amount of 0.1 mg/kg of body weight by the UltraMicroPump III under the help of Micro4 Controller. At CT21:00 of the same day, the LD cycle was shifted to light on at CT21:00, light off at CT9:00, which was 6 hrs advanced. Mice were kept in the new LD for 14 days. Data was processed and moving distance/30 s was calculated.

EC50 ([1]; Homo sapiens, U2OS, Per2-luciferase expressing cells, dosage response, read-out: EC50 for phase shifting): 8.36 nM
SMILES: CCc1cnn2c(NCc3ccc[n+]([O-])c3)cc(N3CCCC[C@H]3CCO)nc12 [Dinaciclib]
Delay of the first peak of Per2-luciferase expression (extent of phase shift) [1]: 9.408 h
Shift of the phase of the circadian clock, maximum ([1]; cultured human cells, dose- and phase-dependent, mean±SEM, n=4): up to 8.172±0.2194 hours (h)
50% phase shift time (PS50) [2]: 1.34 days
